# Measured values as given in US20070042937A1, “Inhibitors of 2-oxoglutarate dioxygenase as gamma globin inducers” (FibroGen, Inc., priority 2003, published 2007).
# At least one compound was matched to its structure with a doubt left.
# What was measured:
# [1] = system: CD34+ human bone marrow progenitor cells; conditions: compound alone, FIG. 4B
# [2] = system: CD34+ human bone marrow progenitor cells; assay: Percent HbF-positive cells (F-cells) in CD34+ bone marrow progenitor cell cultures by flow cytometry; conditions: compound alone, FIG. 4A
smiles,measurement,setting,value
"CCCC(=O)O [butyrate, reference compound]",total hemoglobin in the cultures,[1],increases
same,F-cells,[2],increases
